These are yes or no findings as the source states them, for the method shown. Binding seen in cells or lysates may run through a third protein. Where a sequence is shown, tags or fusion partners need not be part of it.
Target: T1, AtUVR8 (firefly luciferase fragment fusions AtUVR8-nLUC and cLUC-AtUVR8) (Arabidopsis thaliana), Q9FN03
T1 chain: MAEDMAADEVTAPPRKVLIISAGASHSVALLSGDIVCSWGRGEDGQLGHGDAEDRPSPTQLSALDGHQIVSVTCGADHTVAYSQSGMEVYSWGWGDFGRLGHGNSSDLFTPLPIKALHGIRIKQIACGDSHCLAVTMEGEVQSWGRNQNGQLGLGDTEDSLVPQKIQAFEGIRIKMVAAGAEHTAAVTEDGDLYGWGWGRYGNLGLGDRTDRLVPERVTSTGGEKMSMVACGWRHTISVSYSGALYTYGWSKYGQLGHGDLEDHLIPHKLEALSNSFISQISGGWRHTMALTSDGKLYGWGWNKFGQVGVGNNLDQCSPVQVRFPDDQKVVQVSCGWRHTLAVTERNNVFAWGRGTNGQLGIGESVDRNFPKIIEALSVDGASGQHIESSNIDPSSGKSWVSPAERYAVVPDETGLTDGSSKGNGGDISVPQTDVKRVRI
Experiment: split reporter
Details: remark: other sources report otherwise

B1: AtUVR8 (firefly luciferase fragment fusions AtUVR8-nLUC and cLUC-AtUVR8), Q9FN03 1-440 (protein)
chain: T1 chain
binding: no binding

Source: publication doi:10.1101/2023.12.07.570679
